No constants are given. Whether binding was seen depends on the method and setting. Binding seen in cells or lysates may run through a third protein. Here binding means that the protein was enriched with, or labelled near, the bait; the list need not be complete. A no says only that the protein was not detected with the bait. Tags and fused reporters may be left off the sequences shown.
Target: T1, PARALOG OF AIPP2 (PAIPP2), epitope-tagged in transgenic Arabidopsis (Arabidopsis) (UniProt F4KE59)
T1 sequence: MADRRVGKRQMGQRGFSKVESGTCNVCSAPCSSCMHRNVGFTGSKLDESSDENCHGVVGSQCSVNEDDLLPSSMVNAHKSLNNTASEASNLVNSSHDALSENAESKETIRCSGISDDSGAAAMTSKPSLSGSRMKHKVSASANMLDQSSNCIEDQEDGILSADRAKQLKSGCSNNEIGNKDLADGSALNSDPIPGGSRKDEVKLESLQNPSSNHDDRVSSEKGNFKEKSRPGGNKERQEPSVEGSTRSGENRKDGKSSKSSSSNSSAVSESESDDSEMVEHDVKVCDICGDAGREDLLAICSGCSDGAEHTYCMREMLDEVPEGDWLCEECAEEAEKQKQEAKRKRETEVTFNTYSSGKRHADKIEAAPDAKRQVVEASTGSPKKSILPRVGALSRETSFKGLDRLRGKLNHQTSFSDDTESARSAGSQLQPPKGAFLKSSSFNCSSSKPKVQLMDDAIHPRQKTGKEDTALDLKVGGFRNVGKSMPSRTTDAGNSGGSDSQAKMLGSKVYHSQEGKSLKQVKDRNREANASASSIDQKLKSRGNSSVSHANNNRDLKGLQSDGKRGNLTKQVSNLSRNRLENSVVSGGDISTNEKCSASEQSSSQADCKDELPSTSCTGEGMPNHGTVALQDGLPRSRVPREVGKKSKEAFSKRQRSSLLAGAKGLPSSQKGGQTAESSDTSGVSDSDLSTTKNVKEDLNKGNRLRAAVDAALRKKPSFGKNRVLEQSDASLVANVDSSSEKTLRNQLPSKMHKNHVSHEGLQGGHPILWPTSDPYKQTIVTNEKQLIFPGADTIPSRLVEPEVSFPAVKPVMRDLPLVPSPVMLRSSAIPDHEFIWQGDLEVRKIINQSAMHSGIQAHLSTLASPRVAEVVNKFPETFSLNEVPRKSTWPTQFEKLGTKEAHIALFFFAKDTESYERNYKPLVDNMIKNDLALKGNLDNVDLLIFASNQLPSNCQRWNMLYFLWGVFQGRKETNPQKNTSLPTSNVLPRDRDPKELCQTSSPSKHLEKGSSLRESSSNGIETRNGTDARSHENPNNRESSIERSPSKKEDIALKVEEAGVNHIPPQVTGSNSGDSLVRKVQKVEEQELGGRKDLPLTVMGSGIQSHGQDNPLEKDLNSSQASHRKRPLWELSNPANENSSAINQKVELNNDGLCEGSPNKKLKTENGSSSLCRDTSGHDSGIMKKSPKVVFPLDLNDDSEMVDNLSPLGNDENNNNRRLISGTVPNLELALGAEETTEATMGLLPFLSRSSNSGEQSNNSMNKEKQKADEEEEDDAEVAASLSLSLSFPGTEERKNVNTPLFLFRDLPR
Test: affinity purification with mass spectrometry; total proteins of inflorescence tissues of epitope-tagged transgenic plants in IP buffer (50 mM Tris-HCl pH 7.6, 150 mM NaCl, 5 mM MgCl2, 10% glycerol, 0.1% NP-40, 0.5 mM DTT), precipitated with anti-Flag or anti-Myc antibodies 2 h at 4 °C, five washes, MS

B1: EMBRYONIC FLOWER 1 (EMF1) (protein, UniProt Q9LYD9 1-1096)
chain: MGSSIKINSISIDLAGAANEIDMVKCDHFSMRGFVAETRERDLRKCWPFSEESVSLVDQQSYTLPTLSVPKFRWWHCMSCIKDIDAHGPKDCGLHSNSKAIGNSSVIESKSKFNSLTIIDHEKEKKTDIADNAIEEKVGVNCENDDQTATTFLKKARGRPMGASNVRSKSRKLVSPEQVGNNRSKEKLNKPSMDISSWKEKQNVDQAVTTFGSSEIAGVVEDTPPKATKNHKGIRGLMECDNGSSESINLAMSGLQRRKSRKVRLLSELLGNTKTSGGSNIRKEESALKKESVRGRKRKLLPENNYVSRILSTMGATSENASKSCDSDQGNSESTDSGFDRTPFKGKQRNRRFQVVDEFVPSLPCETSQEGIKEHDADPSKRSTPAHSLFTGNDSVPCPPGTQRTERKLSLPKKKTKKPVIDNGKSTVISFSNGIDGSQVNSHTGPSMNTVSQTRDLLNGKRVGGLFDNRLASDGYFRKYLSQVNDKPITSLHLQDNDYVRSRDAEPNCLRDFSSSSKSSSGGWLRTGVDIVDFRNNNHNTNRSSFSNLKLRYPPSSTEVADLSRVLQKDASGADRKGKTVMVQEHHGAPRSQSHDRKETTTEEQNNDDIPMEIVELMAKNQYERCLPDKEEDVSNKQPSQETAHKSKNALLIDLNETYDNGISLEDNNTSRPPKPCSSNARREEHFPMGRQQNSHDFFPISQPYVPSPFGIFPPTQENRASSIRFSGHNCQWLGNLPTVGNQNPSPSSFRVLRACDTCQSVPNQYREASHPIWPSSMIPPQSQYKPVSLNINQSTNPGTLSQASNNENTWNLNFVAANGKQKCGPNPEFSFGCKHAAGVSSSSSRPIDNFSSESSIPALHLLSLLDPRLRSTTPADQHGNTKFTKRHFPPANQSKEFIELQTGDSSKSAYSTKQIPFDLYSKRFTQEPSRKSFPITPPIGTSSLSFQNASWSPHHQEKKTKRKDTFAPVYNTHEKPVFASSNDQAKFQLLGASNSMMLPLKFHMTDKEKKQKRKAESCNNNASAGPVKNSSGPIVCSVNRNPADFTIPEPGNVYMLTGEHLKVRKRTTFKKKPAVCKQDAMKQTKKPVCPPTQNA
binding: no binding

— publication PMC7718874, “Coupling of H3K27me3 recognition with transcriptional repression through the BAH-PHD-CPL2 complex in Arabidopsis” (Nature Communications, 2020)
